2 molecules from US20160238618A1 can be followed below.

The chains behind the UniProt entries cited, without tags or fusion partners. Where a name states a change or a piece, a line headed by the entry shows the natural chain unless it says otherwise.
UniProt Q00613: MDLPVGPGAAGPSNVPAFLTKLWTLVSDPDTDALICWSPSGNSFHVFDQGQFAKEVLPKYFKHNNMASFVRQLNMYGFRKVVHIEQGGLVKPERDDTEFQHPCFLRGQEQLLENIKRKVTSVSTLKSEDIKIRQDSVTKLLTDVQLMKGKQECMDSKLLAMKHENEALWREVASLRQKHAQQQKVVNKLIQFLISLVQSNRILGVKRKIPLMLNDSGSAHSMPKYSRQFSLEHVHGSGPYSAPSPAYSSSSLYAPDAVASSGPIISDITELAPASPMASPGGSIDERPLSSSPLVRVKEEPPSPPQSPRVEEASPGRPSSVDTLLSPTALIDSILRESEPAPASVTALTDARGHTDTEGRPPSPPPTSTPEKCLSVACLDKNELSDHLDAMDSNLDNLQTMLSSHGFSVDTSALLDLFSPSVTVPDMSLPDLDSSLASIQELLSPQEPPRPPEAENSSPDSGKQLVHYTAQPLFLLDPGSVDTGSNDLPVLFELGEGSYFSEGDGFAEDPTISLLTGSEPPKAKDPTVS

These are yes or no findings as the source states them, for the method shown. Some results given as binding are weak or reduced against the parent protein; the word gives no strength.

Assay [1] has as its target T1, RNA binding motif protein 45 (Homo sapiens (Human)) (UniProt Q8IUH3).
T1 sequence: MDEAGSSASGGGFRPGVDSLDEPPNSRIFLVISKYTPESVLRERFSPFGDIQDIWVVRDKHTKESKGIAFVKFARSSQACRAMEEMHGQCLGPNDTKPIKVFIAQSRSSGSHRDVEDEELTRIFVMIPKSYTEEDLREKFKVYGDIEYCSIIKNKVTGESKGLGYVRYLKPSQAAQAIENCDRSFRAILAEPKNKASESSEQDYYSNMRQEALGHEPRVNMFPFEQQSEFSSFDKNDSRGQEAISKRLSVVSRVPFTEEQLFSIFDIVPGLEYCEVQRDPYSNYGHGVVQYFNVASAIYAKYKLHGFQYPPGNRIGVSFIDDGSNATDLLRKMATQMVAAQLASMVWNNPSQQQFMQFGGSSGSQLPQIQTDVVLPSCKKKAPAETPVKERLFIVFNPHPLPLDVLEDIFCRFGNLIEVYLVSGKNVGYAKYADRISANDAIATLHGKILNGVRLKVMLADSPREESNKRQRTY
Put plainly: inferred from immunocolocalization in stressed HEK293 cells.

Assay [2] has as its target heat shock transcription factor 1 (Homo sapiens (Human)) (UniProt Q00613). The experiment in a line: quantitative immunocolocalization analysis in HEK293 cells (immunofluorescence, digital deconvolution).
The target is the same in assay [3]. Put plainly: quantitative immunocolocalization analysis in HEK293 cells.

Regarding “heat shock transcription factor 1 (from UniProt Q00613 1-529)”, the binding result in assay [1] is “binds”.

B1: RNA binding motif protein 45 (protein)
chain: MDEAGSSASGGGFRPGVDSLDEPPNSRIFLVISKYTPESVLRERFSPFGDIQDIWVVRDKHTKESKGIAFVKFARSSQACRAMEEMHGQCLGPNDTKPIKVFIAQSRSSGSHRDVEDEELTRIFVMIPKSYTEEDLREKFKVYGDIEYCSIIKNKVTGESKGLGYVRYLKPSQAAQAIENCDRSFRAILAEPKNKASESSEQDYYSNMRQEALGHEPRVNMFPFEQQSEFSSFDKNDSRGQEAISKRLSVVSRVPFTEEQLFSIFDIVPGLEYCEVQRDPYSNYGHGVVQYFNVASAIYAKYKLHGFQYPPGNRIGVSFIDDGSNATDLLRKMATQMVAAQLASMVWNNPSQQQFMQFGGSSGSQLPQIQTDVVLPSCKKKAPAETPVKERLFIVFNPHPLPLDVLEDIFCRFGNLIEVYLVSGKNVGYAKYADRISANDAIATLHGKILNGVRLKVMLADSPREESNKRQRTY
Regarding B1, the binding result in assay [2] and in assay [3] was “binds” in each case.
